Data reported in ChEMBL document CHEMBL1909046, “DrugMatrix in vitro pharmacology data”.

By UniProt entry, the sequences of proteins in these tests, tags left out.
UniProt P23975, whole entry: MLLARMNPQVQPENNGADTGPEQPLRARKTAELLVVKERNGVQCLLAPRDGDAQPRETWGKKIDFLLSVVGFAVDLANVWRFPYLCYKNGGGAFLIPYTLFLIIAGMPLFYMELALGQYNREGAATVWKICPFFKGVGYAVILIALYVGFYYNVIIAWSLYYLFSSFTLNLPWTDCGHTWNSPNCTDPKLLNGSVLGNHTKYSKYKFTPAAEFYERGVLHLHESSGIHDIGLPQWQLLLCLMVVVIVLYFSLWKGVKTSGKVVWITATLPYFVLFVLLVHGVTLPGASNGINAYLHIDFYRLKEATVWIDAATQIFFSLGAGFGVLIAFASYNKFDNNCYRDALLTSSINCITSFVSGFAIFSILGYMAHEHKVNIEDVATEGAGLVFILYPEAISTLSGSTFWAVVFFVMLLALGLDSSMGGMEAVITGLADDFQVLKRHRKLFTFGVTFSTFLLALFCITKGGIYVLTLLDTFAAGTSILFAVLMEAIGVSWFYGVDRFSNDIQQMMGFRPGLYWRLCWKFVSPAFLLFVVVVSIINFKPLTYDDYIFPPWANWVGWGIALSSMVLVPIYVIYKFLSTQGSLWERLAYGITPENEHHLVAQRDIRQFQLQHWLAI

How the values were obtained:
[1] = target: T1, 5-hydroxytryptamine receptor 2C (Homo sapiens, UniProt P28335); test: DRUGMATRIX: Serotonin (5-Hydroxytryptamine) 5-HT2C radioligand binding (ligand: [3H] Mesulergine); type: cell membranes, CHO-K1, Membrane; conditions: Not Active = under 50% inhibition at 10 µM
T1 sequence (P28335 whole entry): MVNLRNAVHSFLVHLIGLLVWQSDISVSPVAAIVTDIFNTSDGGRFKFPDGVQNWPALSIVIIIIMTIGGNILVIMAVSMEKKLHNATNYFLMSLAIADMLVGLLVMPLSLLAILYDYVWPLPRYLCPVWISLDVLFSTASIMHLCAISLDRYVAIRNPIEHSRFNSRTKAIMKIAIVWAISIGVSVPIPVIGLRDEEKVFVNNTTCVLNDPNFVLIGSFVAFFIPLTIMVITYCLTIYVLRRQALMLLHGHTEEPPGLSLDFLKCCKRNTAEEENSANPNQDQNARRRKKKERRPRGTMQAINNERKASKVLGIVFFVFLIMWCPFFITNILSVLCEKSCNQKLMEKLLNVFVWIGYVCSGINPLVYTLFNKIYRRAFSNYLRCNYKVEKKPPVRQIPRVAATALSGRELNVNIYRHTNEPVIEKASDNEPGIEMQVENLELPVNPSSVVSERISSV

[2] = target: Sodium-dependent noradrenaline transporter (Homo sapiens, UniProt P23975); test: DRUGMATRIX: Norepinephrine Transporter radioligand binding (ligand: [125I] RTI-55); type: cell membranes, Membrane; conditions: mdck; Not Active = under 50% inhibition at 10 µM
[3] = DRUGMATRIX: Interleukin IL-1 radioligand binding (ligand: [125I] interleukin 1beta); type: cell membranes, Membrane; conditions: nih3t3; Not Active = under 50% inhibition at 10 µM
[4] = DRUGMATRIX: Potassium Channel [KATP] radioligand binding (ligand: [3H] Glyburide); type: cell membranes, Membrane; conditions: hit-t15; Not Active = under 50% inhibition at 10 µM
[5] = DRUGMATRIX: Sodium/nucleoside co-transporter radioligand binding (ligand: nitrobenzylthioinosine); type: cell membranes, Cavia porcellus, Dunkin-Hartley, Cerebral cortex, Membrane; conditions: Not Active = under 50% inhibition at 10 µM
[6] = DRUGMATRIX: GABAA, Muscimol, Central radioligand binding (ligand: [3H] Muscimol); type: cell membranes, Rattus norvegicus, Wistar, Brain, Membrane; conditions: Not Active = under 50% inhibition at 10 µM
[7] = DRUGMATRIX: ATPase, Na+/K+ enzyme inhibition (substrate: ATP); type: tissue-based, Sus scrofa, Heart; conditions: Not Active = under 50% inhibition at 10 µM
[8] = DRUGMATRIX: Phosphodiesterase PDE4 enzyme inhibition (substrate: [3H]cAMP + cAMP); conditions: u-937, Not Active = under 50% inhibition at 10 µM
[9] = DRUGMATRIX: Leukotriene, BLT (LTB4) radioligand binding (ligand: [3H]LTB4); type: cell membranes, Membrane; conditions: u-937; Not Active = under 50% inhibition at 10 µM

CN(C)CCN(Cc1cccs1)c1ccccn1
IC50 [1]: 744 nM
Ki [1]: 390 nM

CCN(CC)CCOC(=O)C1(C2CCCCC2)CCCCC1 [DICYCLOMINE]
IC50 [2]: Not Active

C[S+]([O-])c1ccc(-c2nc(-c3ccc(F)cc3)c(-c3ccncc3)[nH]2)cc1 (configuration not stated) [SB-203580]
IC50 [3]: Not Active
Ki [3]: Not Active
IC50 [4]: Not Active
Ki [4]: Not Active
IC50 ([5]; read-out: IC50): 5920 nM
Ki ([5]; read-out: Ki): 2030 nM
IC50 [6]: Not Active
Ki [6]: Not Active
IC50 [7]: Not Active
Ki [7]: Not Active
Ki [8]: Note: corresponding IC50 reported as Active
IC50 ([8]; read-out: IC50): 11600 nM
IC50 [9]: Not Active
Ki [9]: Not Active
